Measurements from paper PMC5630373.
No constants are given. Whether binding was seen depends on the method and setting. In cells and extracts the contact can be indirect. Some binding calls cover weakened binding; strength is not graded here.

Chains of the proteins cited; added tags and fusions are not shown.
UniProt Q04206: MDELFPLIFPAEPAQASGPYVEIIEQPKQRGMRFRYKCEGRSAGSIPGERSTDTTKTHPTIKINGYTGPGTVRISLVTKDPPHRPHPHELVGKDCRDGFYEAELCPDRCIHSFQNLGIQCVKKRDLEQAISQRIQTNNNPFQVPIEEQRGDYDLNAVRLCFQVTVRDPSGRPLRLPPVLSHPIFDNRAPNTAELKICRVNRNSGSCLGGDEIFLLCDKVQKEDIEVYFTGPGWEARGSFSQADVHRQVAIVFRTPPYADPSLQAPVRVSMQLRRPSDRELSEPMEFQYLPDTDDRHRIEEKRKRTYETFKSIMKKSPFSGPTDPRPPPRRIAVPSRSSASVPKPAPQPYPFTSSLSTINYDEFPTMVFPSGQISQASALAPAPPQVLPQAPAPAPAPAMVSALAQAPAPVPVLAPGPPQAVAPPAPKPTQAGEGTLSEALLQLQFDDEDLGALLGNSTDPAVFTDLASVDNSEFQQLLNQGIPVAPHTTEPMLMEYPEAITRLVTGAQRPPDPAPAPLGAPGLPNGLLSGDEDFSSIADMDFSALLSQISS

Biological target: NF-κB p65 (human (endogenous in HaCaT)) (UniProt Q04206)
Assay: co-IP; IP with an anti-p65 antibody (1:100) from RIPA lysates of confluent α-catenin-knockdown HaCaT cells (compared with cells without the knockdown), pre-cleared, overnight at 4°C, protein A/G beads; blotted with an NBPF antibody and an NBPF7-specific antibody

binding: binds
B1: NBPF7 (neuroblastoma breakpoint family member 7) (protein, UniProt P0C2Y1 1-421)
chain: MCLRFFSPVPGSTSSATNVTMVVSAGPWSSEKAEMNILEINEKLRPQLAENKQQFRNMKQKFLVTQMAGFLANQQNKYKYEECKDLIKSMLREELQFKEEKLAEQLKQAEELRQYKVLVHSQERELIQLREKLREGRDASHSLNQHLQALLTPDKHDNSQGQDFREQLAEGCRLARHLVHKLSPENDTDEDENDKTKELDKVQESPAPREEQKAEEKEVPEDSLEECAITYSNSHGPSDSNPPHKNIKITSEEDKVNSILVVDSESSQDEWQDALNILLENQNDDEEEEGKAPVPPQVTLWICGLKLQESEEKEVLQDSPEERVTTSCSDHDVSQSYQPCEGTFLALVEQKVCSAQDVASEHSNSKGEETPLGFPDTKYCWKDEKDERMSQKVAFLLDEKNYNSKPSSIPNTTLQGSFTED
